Values quoted from earlier work in US12213481B1, “4,4′-[(2-hydroxypropane-1,3-diyl)bis(oxy)]dibenzaldehyde as an eco-friendly insecticidal agent against Spodoptera littoralis (boisd.)” (KING FAISAL UNIVERSITY, priority 2023, dated 2025).
Some results were stated once for a whole list of compounds, not compound by compound.

Test system: aquatic insects
Conditions: cited from earlier work

Row | Compound | LC50
1 | CCOC(=O)NCCOc1ccc(Oc2ccccc2)cc1 [fenoxycarb, reference compound] | < 100 µg/mL
2 | COC(C)(C)CCC[C@H](C)C/C=C/C(C)=C/C(=O)OC(C)C (racemic) [methoprene] | < 100 µg/mL
